The source of these data is US20120294871A1, “MODULATION OF GPCR-MEDIATED CAMP PRODUCTION THROUGH LRP6 AND ITS THERAPEUTIC APPLICATION” (THE JOHNS HOPKINS UNIVERSITY, priority 2011, published 2012).

By UniProt entry, the sequences of proteins in these tests, tags left out. Residues count along the entry.
UniProt P63092, residues 2-394: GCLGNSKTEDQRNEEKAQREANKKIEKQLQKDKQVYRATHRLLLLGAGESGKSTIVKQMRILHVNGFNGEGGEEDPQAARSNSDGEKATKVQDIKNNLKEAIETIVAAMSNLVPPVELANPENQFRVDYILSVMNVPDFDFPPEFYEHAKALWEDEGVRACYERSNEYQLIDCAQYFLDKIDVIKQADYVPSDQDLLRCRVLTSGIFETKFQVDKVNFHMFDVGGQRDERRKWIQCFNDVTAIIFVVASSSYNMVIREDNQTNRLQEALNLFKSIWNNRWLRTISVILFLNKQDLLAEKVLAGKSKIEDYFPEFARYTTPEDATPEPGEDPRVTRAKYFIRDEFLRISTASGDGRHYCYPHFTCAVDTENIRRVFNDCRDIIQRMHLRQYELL

Assay [1] has as its target Gαs (endogenous, from HEK 293 cell lysates) (human) (UniProt P63092). Kind of assay: GST pull-down from HEK 293 cell lysates, Western blot for Gαs. For orientation: A western blot detects proteins with antibodies after separation by electrophoresis.
Assay [2] has the same target. Briefly: GST pull-down from HEK 293 cell lysates.

No constants are given. Whether binding was seen depends on the method and setting. Binding seen in cells or lysates may run through a third protein. Some binding calls cover weakened binding; strength is not graded here. Where a sequence is shown, tags or fusion partners need not be part of it.

B1: Glutathione S-transferase (GST)-fused cytoplasmic domain of LRP6 (protein, not shown: a dimerising Fc or GST)
chain: CQRMLCPRMKGDGETMTNDYVVHGPASVPLGYVPHPSSLSGSLPGMSRGKSMISSLSIMGGSSGPPYDRAHVTGASSSSSSSTKGTYFPAILNPPPSPATERSHYTMEFGYSSNSPSTHRSYSYRPYSYRHFAPPTTPCSTDVCDSDYAPSRRMTSVATAKGYTSDLNYDSEPVPPPPTPRSQYLSAEENYESCPPSPYTERSYSHHLYPPPPSPCTDSS
As to B1, the binding result in assay [1] and in assay [2] was “binds” throughout.
